# Experimental data as given in PMC12040169 (PLOS Biology, 2025).
# This is one part of the list.
# System: T1, CTL2-GFP (C. trachomatis L2/434/Bu, GFP-expressing)
# T1 construct: L2/434/Bu, GFP-expressing
# Set-up: species or system HeLa; Intracellular C. trachomatis growth in HeLa cells, bulk GFP fluorescence relative to DMSO
# Conditions: bulk GFP, single well; 28.5 h, 10 µM; inhibitor
row,Structure (SMILES),% of control remaining
1,Cn1ccc(CNCc2c(Br)cc(F)c(F)c2N2CCCCC2)n1 [CBK304763],107.584%
2,CN(CCCNC(=O)/C=N/O)CCCC(C)(C)C [CBK288480],136.611%
3,Brc1cccc(CSc2nnc(COc3ccccc3)n2Cc2ccccc2)c1 [CBK268250],84.3773%
4,Cn1cc(-c2nc(C3CCCCCN3C(=O)c3cc(Cl)c[nH]3)no2)cn1 (stereo not shown) [CBK306396],93.471%
5,Fc1cccc(-c2nccnc2NCC2CC2)c1 [CBK036767],119.959%
6,O=C(O)CCC(=O)N1CCN(S(=O)(=O)c2ccc(F)cc2)CC1 [CBK286956],141.639%
7,CC(=O)c1ccc(NC(=O)Cn2cnc3c(sc4ncccc43)c2=O)cc1 [CBK287773],129.14%
8,NS(=O)(=O)c1ccc(CNC(=O)C(Sc2ccccc2)c2ccccc2)cc1 (stereo not shown) [CBK264355],132.7%
9,Cn1c(SCc2c(Cl)cccc2[N+](=O)[O-])nnc1-c1ccc(NC(=O)c2ccccc2Cl)cc1 [CBK264983],117.542%
10,O=C(Cc1cccc(O)c1)N1CCCC1c1nc2ccccc2[nH]1 (stereo not shown) [CBK282346],121.774%
11,O=C(NCc1nc2ccccc2s1)c1ccc2c(c1)OCCO2 [CBK295325],128.457%
12,CCN(CC)CCN1CCN(c2cc(-c3ccsc3)ncn2)CC1 [CBK036973],157.489%
13,Cn1ccnc1CN1CCC2(C/C=C/Cc3ccccc3OCC(=O)NCCNC2=O)CC1 [CBK292180],127.763%
14,CCN1CCN(C(=O)C2CCN(S(=O)(=O)c3ccc(Br)cc3)CC2)CC1 [CBK266881],135.342%
15,CC(C)(O)C#Cc1ccc(C(=O)NC(CSCc2ccccc2)C(=O)O)s1 (stereo not shown) [CBK267705],145.109%
16,O=C(O)c1cccc(NC(=O)C2CCCCC2C(=O)O)c1 (stereo not shown) [CBK261538],107.196%
17,CN(CC(=O)N1CCCCC1)S(=O)(=O)c1cc(Cl)ccc1Cl [CBK091826],111.027%
18,CCNC(=O)N1C(CC(=O)OCC)C(=O)NC2CCCCC21 (stereo not shown) [CBK268030],121.916%
19,O=c1[nH]nc2c(N3CCc4ccccc4C3)nccn12 [CBK288497],96.1023%
20,O=C1c2ccccc2C(=O)N1CCc1c[nH]c2ccc(O)cc12 [CBK086794],138.285%
21,Cc1nn(Cc2nnn(CC(=O)O)n2)c(C)c1Br [CBK009457],129.779%
22,COCCOc1ccc(C(=O)N[C@@H]2CNCCC[C@H]2O)cc1 [CBK289071],145.88%
23,O=C(COc1ccc(-c2ccccc2)cc1)N/N=C/c1ccncc1 [CBK262210],94.0363%
24,Cn1c(SCC(=O)Nc2c(F)cc(F)cc2Br)nnc1-c1cnccn1 [CBK267584],137.413%
25,COC(=O)c1ccc(F)c(NC(=O)C2CCCC2)c1 [CBK296640],157.941%
26,O=C(CN1C(=O)c2ccc([N+](=O)[O-])cc2C1=O)Nc1ccc(O)cc1C(=O)O [CBK263456],132.645%
27,O=C(Nc1ccccc1N1CCOCC1)c1ccc(OCc2ccccc2)cc1 [CBK265992],159.767%

# Looked up by structure from above, 5 records:
row,Structure (SMILES),% of control remaining
17,CN(CC(=O)N1CCCCC1)S(=O)(=O)c1cc(Cl)ccc1Cl [CBK091826],111.027%
25,COC(=O)c1ccc(F)c(NC(=O)C2CCCC2)c1 [CBK296640],157.941%
15,CC(C)(O)C#Cc1ccc(C(=O)NC(CSCc2ccccc2)C(=O)O)s1 (stereo not shown) [CBK267705],145.109%
24,Cn1c(SCC(=O)Nc2c(F)cc(F)cc2Br)nnc1-c1cnccn1 [CBK267584],137.413%
2,CN(CCCNC(=O)/C=N/O)CCCC(C)(C)C [CBK288480],136.611%

# Next results follow:

row,Structure (SMILES),% of control remaining
1,CC(=O)Nc1ccccc1NC(=O)CCCN1C(=O)CCC1=O [CBK267681],103.864%
2,CN(C)CC1CCCN(C(=O)c2cc3cc(Cl)ccc3n2C)C1 (stereo not shown) [CBK282121],116.381%
3,O=C(CCN1CCN(CCO)CC1)Nc1ccc(F)c(F)c1 [CBK264316],100%
4,Cc1ccc(OCC(=O)N2CCN(S(=O)(=O)c3ccc([N+](=O)[O-])cc3)CC2)cc1 [CBK264267],109.257%
5,COc1cc(C)c(Nc2cc(-c3ccc(C(N)=O)cc3)ncn2)cc1OC [CBK090784],154.132%
6,O=c1cc(C(F)(F)F)c2ccc(OCc3ccc(Cl)cc3)cc2o1 [CBK058200],117.821%
7,Cc1nccn1CCCn1cncc1-c1ccc2c(c1)CC(C)N2C (stereo not shown) [CBK281818],102.839%
8,Cc1n[nH]c(C)c1CCCCCOc1ccccc1F [CBK025736C],118.117%
9,O=c1[nH]c(=O)n([C@H]2C[C@@H](O)[C@@H](CO)O2)cc1CO [CBK201332],120.409%
10,Cc1csc2nc(CN3CCN(C(=O)c4ccccc4)CC3)cc(=O)n12 [CBK305019],94.7736%
11,C[C@H](Cn1nc2c(cc1=O)CCCCC2)NC(=O)Cc1cccs1 [CBK284548],89.1043%
12,CC(=O)c1sc(NC(=O)c2ccccc2Oc2ccccc2)nc1C [CBK287314],138.108%
13,O=C(NC1CCCC1)c1ccc2c(=O)[nH]cnc2c1 [CBK287990],127.825%
14,O=C(C(CO)c1ccccc1)N1CCC2(CCN(CCCCOc3ccccc3)C2)C1 (stereo not shown) [CBK161722],127.602%
15,O=C(CN1CCN(CCCc2c[nH]c3ccc(F)cc23)CC1)N(c1ccccc1)C1CCCCC1 [CBK074710],154.964%
16,O=C(NC[C@H]1O[C@@H](CC(=O)N2CCN(c3ccc(F)cc3)CC2)[C@H](O)[C@@H]1O)C1CC1 [CBK288921],128.692%
17,Cc1nc2cc(C(=O)N3CCC(c4ccncc4)CC3)ccc2s1 [CBK283513],87.308%
18,Cc1ccc(SC(C)C(=O)O/N=C(\N)c2ccccn2)cc1 (stereo not shown) [CBK268567],88.8629%
19,N#Cc1ccccc1COC(=O)c1cc(-c2ccc(/C=C/c3nc(O)c([N+](=O)[O-])c(=O)[nH]3)o2)ccc1Cl [CBK269115],118.294%
20,COC(=O)c1cscc1NC(=O)c1cnc(-c2ccc(Cl)cc2)c(-c2ccco2)c1 [CBK036657],128.619%
21,OC[C@H]1CCCN1c1nc(Br)cn2ccnc12 [CBK085496],127.841%
22,Cc1cc(C)nc(-n2ncc(C#N)c2N)n1 [CBK270227],147.249%
23,CSc1nnc(NS(=O)(=O)c2ccccc2C)s1 [CBK144918],97.6179%
24,O/N=C1\CSCc2ncccc21 [CBK007234],150.044%
25,COCCNc1nc2c(c(N3CCCC(C#N)C3)n1)CCNCC2 (stereo not shown) [CBK307412],127.032%
26,COc1ccc(CNc2ccc(N3CCOCC3)c(C(=O)O)c2)c(OC)c1 [CBK269860],118.994%
27,COc1ccc(-n2c(S)nnc2-c2cccs2)cc1 [CBK266832],103.001%

row,Structure (SMILES),% of control remaining
1,O=C(O)c1cccc(NS(=O)(=O)c2cccc([N+](=O)[O-])c2)c1 [CBK155711],121.486%
2,Cc1cc2occ(CC(=O)NCc3cc(C4CC4)[nH]n3)c2cc1C [CBK282576],131.108%
3,O=C(O)C(Cc1ccccc1)C(C(=O)O)c1ccccc1 (stereo not shown) [CBK286578],106.732%
4,O=C(Nc1ccc2oc(-c3cccnc3)nc2c1)c1cccc(-c2cc3ccccc3oc2=O)c1 [CBK268612],138.387%
5,CS(=O)(=O)Nc1ccc(-c2ccsc2)c2ccccc12 [CBK083742],99.8272%
6,Cc1ccccc1C(NC(=O)C1CCN(S(=O)(=O)C(C)C)CC1)c1ccccn1 (stereo not shown) [CBK059711],158.534%
7,O=C(O)CCC(CCC(=O)O)([N+](=O)[O-])[N+](=O)[O-] [CBK260956],115.666%
8,Fc1ccc(-c2ccc(Nc3cccnc3)nc2)cc1Cl [CBK037642],133.168%
9,CCOC(=O)CC1SC(NS(=O)(=O)c2ccc(Br)cc2)=NC1=O (stereo not shown) [CBK014126],90.0496%
10,Cc1ccc2cc(S(=O)(=O)NCCC(=O)O)ccc2c1 [CBK267569],137.665%
11,Cc1cc(C)n(-c2nc3ccccc3nc2N2CCN(S(=O)(=O)c3ccccc3)CC2)n1 [CBK269399],157.68%
12,COc1ccc(CNc2nc(-c3ccc(C)cc3)nn2C(=O)c2cccc([N+](=O)[O-])c2)cc1 [CBK268546],88.7329%
13,O=C(C1CCCCC1)N1CC(n2nc(-c3cccs3)ccc2=O)C1 [CBK283346],103.092%
14,O=C(CCS(=O)(=O)Cc1ccccc1)n1nnc2ccccc21 [CBK268324],99.9508%
15,CN1CCN(C)C(COc2cccc(C(F)(F)F)n2)C1 (stereo not shown) [CBK113292],115.12%
16,O=C(CN1C(=O)S/C(=C\c2ccc(OCc3ccccc3F)cc2)C1=O)c1ccc(Cl)cc1 [CBK264632],110.991%
17,COCCN1C(=O)C2(CC(=O)N(CCCN3C(=O)CCC3=O)C2=O)c2ccccc21 (stereo not shown) [CBK075333],78.279%
18,COc1ccc(CN2CCC(C(=O)NC(c3ccc(OC)nc3)c3ccccc3C)CC2)cc1 (stereo not shown) [CBK081445T],110.037%
19,CCNC(=O)N1CC2(CCN(CC(N)=O)CC2)c2ccccc21 [CBK126701],125.935%
20,CC(C)(C)c1ccc(NC(=O)N2CCCN(Cc3ccccc3)CC2)cc1 [CBK085876],93.8481%
21,Cc1ccc(-n2cc(CN(C)CC3(C)COC3)cn2)cc1 [CBK281720],128.441%
22,O=C(O)CCCC(=O)N1N=C(c2cccs2)CC1c1cn(-c2ccccc2)nc1-c1ccccc1 (stereo not shown) [CBK296124],162.589%
23,O=C(O)c1cn(CCN2C(=O)c3ccccc3C2=O)nn1 [CBK286543],101.556%
24,Cc1csc(NC(=O)c2ncoc2-c2cccs2)n1 [CBK283972],127.339%
25,CCN(CC)C(=O)C1CCCN(C(=O)NCc2cc(OC)c(OC)c(OC)c2)C1 (stereo not shown) [CBK156130],119.61%
